Experimental data: US20230242615A1
Results are given in words; binding and its absence hold for the method and conditions named. Some entries that bind do so weakly or less than the wild type.

Protein sequences, listed by entry. Tags and fused reporters are not part of them. Lines headed by an entry give the natural chain unless they say otherwise; changes in a name come on top.
UniProt P78552: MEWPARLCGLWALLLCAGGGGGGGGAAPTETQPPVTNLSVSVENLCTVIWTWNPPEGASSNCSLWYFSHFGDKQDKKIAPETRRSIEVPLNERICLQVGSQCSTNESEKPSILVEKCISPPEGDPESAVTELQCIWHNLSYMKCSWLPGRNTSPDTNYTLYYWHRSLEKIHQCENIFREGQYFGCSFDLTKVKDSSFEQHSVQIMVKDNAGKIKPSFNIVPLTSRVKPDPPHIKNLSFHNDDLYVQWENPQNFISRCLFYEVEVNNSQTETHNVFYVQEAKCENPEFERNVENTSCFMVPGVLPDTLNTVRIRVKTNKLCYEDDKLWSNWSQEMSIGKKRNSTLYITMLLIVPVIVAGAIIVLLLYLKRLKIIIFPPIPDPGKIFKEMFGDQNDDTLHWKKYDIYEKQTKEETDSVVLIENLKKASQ
UniProt P24394: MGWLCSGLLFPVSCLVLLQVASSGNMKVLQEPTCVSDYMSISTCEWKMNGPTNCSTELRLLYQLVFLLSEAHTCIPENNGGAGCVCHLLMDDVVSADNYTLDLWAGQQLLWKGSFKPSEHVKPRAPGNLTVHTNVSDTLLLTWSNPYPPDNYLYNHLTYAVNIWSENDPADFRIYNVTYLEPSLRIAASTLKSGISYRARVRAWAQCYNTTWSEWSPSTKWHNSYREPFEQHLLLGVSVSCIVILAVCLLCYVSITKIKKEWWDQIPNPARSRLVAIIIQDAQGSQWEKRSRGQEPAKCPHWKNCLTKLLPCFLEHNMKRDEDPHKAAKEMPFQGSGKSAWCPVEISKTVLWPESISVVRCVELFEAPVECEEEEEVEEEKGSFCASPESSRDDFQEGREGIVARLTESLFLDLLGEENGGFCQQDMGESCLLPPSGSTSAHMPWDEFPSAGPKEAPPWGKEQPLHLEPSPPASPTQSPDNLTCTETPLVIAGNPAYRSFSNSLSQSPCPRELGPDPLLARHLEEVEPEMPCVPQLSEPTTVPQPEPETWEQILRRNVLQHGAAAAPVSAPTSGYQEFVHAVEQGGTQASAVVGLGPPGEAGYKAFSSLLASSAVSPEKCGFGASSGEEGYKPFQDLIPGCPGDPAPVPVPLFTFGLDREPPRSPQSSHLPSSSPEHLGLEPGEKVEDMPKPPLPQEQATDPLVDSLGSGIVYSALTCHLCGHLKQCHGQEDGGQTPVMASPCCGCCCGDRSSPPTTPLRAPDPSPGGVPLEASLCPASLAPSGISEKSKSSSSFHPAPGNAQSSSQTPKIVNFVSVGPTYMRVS
UniProt P35225: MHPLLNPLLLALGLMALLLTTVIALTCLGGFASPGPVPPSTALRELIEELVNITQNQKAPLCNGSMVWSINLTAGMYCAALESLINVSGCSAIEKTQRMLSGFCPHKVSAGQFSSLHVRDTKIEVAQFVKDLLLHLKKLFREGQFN

Columns and labels:
Assay in all cases: ELISA, fusion polypeptide coated, IL13 in a gradient mixed with fixed IL4 (1 ng/ml) as competitor, detection with HRP anti-IL13 antibody; signal as a ratio to IL13 without IL4
[1] = molecular target: IL13Rα1-IL4Rα-Fc (Homo sapiens (Human)) (UniProt P78552)
[2] = molecular target: IL4Rα-IL13Rα2-Fc (Homo sapiens (Human)) (UniProt P24394)
[3] = molecular target: IL4Rα-IL13Rα1-Fc (Homo sapiens (Human)) (UniProt P24394)

binding [1]: binds | binding [2]: binds | binding [3]: binds
Substance: Interleukin 13 (from UniProt P35225 36-146) (ligand)
